# Data published in PubChem BioAssay AID493014 (National Center for Advancing Translational Sciences (NCATS), 2011).
# The other results are listed elsewhere or left out. Further columns of the screen follow, without active or inactive calls. Most of these compounds were active or inconclusive in the main read-out, so they are no random draw. Potencies come from curve fits of mixed quality, noted in brackets.
# Test: qHTS Assay to Find Inhibitors of Chronic Active B-Cell Receptor Signaling
# Settings: ABC-DLBCL IkBa-CBG/CBR reporter, luminescence ratio (green luciferase fused to IkBa over red control in TMD8 lymphoma cells), 4 h
# Procedure, shortened: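 Doxycycline induced both beetle luciferases in TMD8 lymphoma cells; IKK-driven degradation limits the IkappaBalpha-fused green signal, while red luminescence normalises for cell number and nonspecific effects. Compounds tested up to 46 uM, 4 hrs.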
# [1] = measured here: CBR red luminescence, cell number
# [2] = measured here: IkBa-CBG green luminescence
SMILES,AC50 [1],AC50 [2]
CCN(CC)c1ccc(/C=N/NC(=O)c2ccc(Br)o2)cc1,"29.1 µM [falling, single point]",
CCOC(=O)N1C(=O)[C@@](c2ccc(Cl)cc2)(C(C)C)N1C(=O)OCC,"35.5 µM [falling, single point]",
COc1ccc(N(CC(=O)N/N=C/c2cccc(OC)c2OC)S(=O)(=O)c2ccccc2)cc1,"2.24 µM [rising, partial curve, poor fit]",
O=C(Nc1nccs1)C(F)(F)C(F)(F)C(F)(F)C(=O)Nc1nccs1,"35.5 µM [falling, single point]",
O=C(N/N=C1\CCc2ccccc21)c1ccccc1Cl,"29.1 µM [falling, single point]",
Cc1ccc(CNC(=O)[C@H](C)N2C(=O)N3CCc4c([nH]c5ccccc45)[C@@]3(C)C2=O)cc1,"17.8 µM [falling, partial curve, poor fit]",
CCc1nnc(N/N=C/c2ccc(N3CCC(C)CC3)c([N+](=O)[O-])c2)n1N,,"16.4 µM [falling, single point]"
Cc1sc2ncnc(SCC(=O)NCC(C)C)c2c1C,"29.1 µM [rising, single point]",
COc1cccc2[nH]c(C(=O)NCC3CCCO3)cc12 (centres undefined),"22.4 µM [falling, single point]",
CCOC(=O)c1c(S(=O)(=O)Nc2cccc(-c3ccno3)c2)c(C)n(C)c1C,"35.5 µM [rising, single point]",
Cc1ccc(CC(=O)Nc2cccc([N+](=O)[O-])c2)cc1,"10 µM [rising, partial curve, poor fit]",
O=C(Nc1ccc(F)cc1)Nc1ccccc1F,"10 µM [falling, partial curve]",
O=C(O)CC/C(=C\c1cc2c(cc1Br)OCO2)c1nc2ccccc2s1,"3.16 µM [rising, full curve, poor fit]",
COc1ccc2c(c1)nc(SCC(C)O)n2C (centres undefined),"29.1 µM [rising, partial curve]",
O=C(CCN1C(=O)/C(=C/c2ccccc2)SC1=S)NNC(=O)c1ccncc1,"0.0891 µM [rising, full curve, poor fit]",
COc1ccc(N=Nc2cc(C)c(O)c(CN3CCCCC3)c2)cc1,"20 µM [rising, partial curve, poor fit]",
Cc1cc(NC(=O)CSc2nc3ccccc3c(=O)n2C2CCCC2)no1,"11.6 µM [rising, partial curve]","4.61 µM [falling, full curve]"
COCCSc1nnc(NC(=O)CCS(=O)(=O)c2ccccc2)s1,"8.91 µM [falling, partial curve]",
O=C(Nc1ccc(Cl)c(-c2nc3ccccc3[nH]2)c1)c1ccc2c(c1)OCO2,"10.3 µM [falling, partial curve]",
CN(C)c1cc2c(c(N(C)C)c1)C(=O)c1ccccc1C2=O,"2.82 µM [falling, partial curve, poor fit]",
C/C(=N/NC(=O)c1ccccn1)c1c[nH]c2ccccc12,"22.4 µM [falling, single point]",

SMILES,AC50 [1],AC50 [2]
COC(=O)C(NS(=O)(=O)c1cccc(S(=O)(=O)NC(C(=O)OC)c2ccccc2)c1)c1ccccc1 (centres undefined),"10 µM [falling, partial curve, poor fit]",
O=C(Nc1sc2c(c1C(=O)O)CCCCC2)c1ccccc1F,"0.0355 µM [falling, full curve]",
CC1(C)CC(=O)c2cc(N=C/C(C(=O)c3ccccc3)=C(\O)c3ccccc3)c(=O)oc2C1,"11.2 µM [rising, partial curve]",
COC(CNC(=O)C(=O)Nc1ccc2c(c1)N(S(=O)(=O)c1cccs1)CCC2)OC,"8.2 µM [rising, partial curve, poor fit]",
O=C(COC(=O)c1c(F)cccc1Cl)NCC1CCCCC1,"0.231 µM [rising, full curve]",
COc1ccc(-c2noc(N3CCCC(C(=O)Nc4ccccc4F)C3)n2)cc1 (centres undefined),"1.12 µM [rising, full curve, poor fit]",
CN(C)C(=O)CSc1n[nH]c(-c2ccco2)n1,"3.55 µM [falling, full curve, poor fit]",
COC(=O)Nc1nc2ccc(Sc3ccccc3)cc2[nH]1,"2.59 µM [rising, full curve]","2.91 µM [falling, full curve]"
Oc1ccccc1N=Nc1ccccc1O,,"0.631 µM [falling, partial curve, poor fit]"
C[C@]12c3[nH]c4cc(-c5ccco5)ccc4c3CCN1C(=O)[C@@H](CC(=O)NCC13CC4CC(CC(C4)C1)C3)C[C@@H]2C(=O)N1CCOCC1,"16.4 µM [falling, partial curve]",
O=[N+]([O-])c1cc(NS(=O)(=O)c2ccc(Cl)nc2)ccc1Cl,"23.1 µM [falling, partial curve, poor fit]",
O=[N+]([O-])c1cccc(S(=O)(=O)c2cccc([N+](=O)[O-])c2)c1,"11.2 µM [falling, partial curve]",
COc1ccc(-n2c(-c3ccc(F)cc3)cnc2SCC(=O)NCc2ccco2)cc1,"0.164 µM [rising, full curve, poor fit]",
COc1ccccc1NC(=O)c1cnc(Nc2ccccc2OC)c2ccccc12,"20.6 µM [falling, partial curve]","23.1 µM [falling, single point]"
COc1ccc(C(=O)/C=C/C(=O)N(CC(=O)NC2CCCCC2)Cc2ccccc2)c(O)c1,"3.98 µM [falling, partial curve, poor fit]",
COc1cc(/C=N/NC(=S)Nc2cccc(S(=O)(=O)N(C)C)c2)ccc1O,"4.11 µM [falling, full curve, poor fit]",
O=C1C=C(c2ccc(-c3ccccc3)cc2)C[C@@H](c2ccc(F)cc2)C1,"6.51 µM [rising, partial curve, poor fit]",
Cc1cccc(NC(=S)NNC(=O)c2ccc3c(c2)OCO3)c1,"14.6 µM [falling, partial curve, poor fit]",
COc1cc2c(cc1OC)-c1cc(Nc3ccc(N(C)C)cc3)nc(=O)n1CC2,,"11.2 µM [falling, partial curve]"
O=C(CCC(=O)N(CC(=O)NC1CCCC1)c1ccccc1F)Nc1nccs1,"28.2 µM [falling, single point]",
COc1ccc(C(=S)N2CCOCC2)cc1OC(=O)c1cc([N+](=O)[O-])c(C)c([N+](=O)[O-])c1,"29.1 µM [rising, single point]",

SMILES,AC50 [1],AC50 [2]
O=C(NC(=S)NNC(=O)c1ccccc1[N+](=O)[O-])c1ccccc1,"20.6 µM [falling, partial curve]",
CCOC(=O)C(NC(=O)c1cccc(Cl)c1)(Nc1sc2c(c1C(N)=O)CCC2)C(F)(F)F (centres undefined),,"18.4 µM [falling, single point]"
CCOC(=O)C1CCCN(c2ccc(NC(=O)c3snc4c(=O)[nH]c(C)nc34)cc2)C1 (centres undefined),"0.794 µM [falling, partial curve, poor fit]",
COc1ccccc1NC(=S)N(Cc1ccco1)Cc1cc2ccc(C)c(C)c2[nH]c1=O,"18.4 µM [rising, partial curve]",
COc1ccc(C(=O)CSc2nnc(Cn3nnc4ccccc43)n2C)cc1,"20.6 µM [rising, partial curve, poor fit]",
Cc1cc2cc(C#N)c(SCC(=O)Nc3nonc3C)nc2cc1C,"0.112 µM [rising, full curve, poor fit]",
CCCN1CCN(CCCNC(=O)CN2C(=O)COc3ccccc32)CC1,"32.6 µM [falling, single point]",
CC1CCc2c(sc(/N=C/N(C)C)c2C#N)C1 (centres undefined),,"35.5 µM [falling, single point]"
C=CCn1c2ccccc2c(=O)c2cc(C#CC3(O)CCCCC3)ccc21,"3.98 µM [falling, full curve, poor fit]",
CCOC(=O)C(C)n1nc(C)c2sc3ccccc3c2c1=O (centres undefined),"3.55 µM [rising, single point]",
Cc1ccc(Cn2ncc3c(NCCCN(C)C)ncnc32)cc1,"2.51 µM [falling, single point]",
CCOC(=O)C1=C(C)NC(=O)NC1c1cc(Br)c(O)c(OC)c1 (centres undefined),"29.1 µM [rising, single point]",
COc1ccc(C)cc1N(CC(=O)NC1CCCC1)C(=O)CCC(=O)Nc1nc(C)cs1,"11.2 µM [falling, partial curve]",
C[C@H]1COC(=O)[C@H](CC(=O)OC(C)(C)C)C/C=C\C[C@@H](CC(=O)N[C@@H](CO)Cc2ccccc2)C(=O)N1,"0.092 µM [rising, full curve, poor fit]",
COc1ccc(CNC(=O)CN(Cc2ccccc2Cl)C(=O)c2csnn2)cc1,"14.1 µM [rising, single point]",
COc1ccc(-n2ncc3c(N4CCCCC4)ncnc32)cc1,"20.6 µM [falling, single point]",
COc1ccc(CNC(=O)c2cnn(-c3ccc(C)cc3)c2-n2cccc2)cc1OC,"3.16 µM [rising, single point]",
COc1cc(NC(=O)CSc2nc(C)cs2)cc(OC)c1,"3.66 µM [falling, single point]",
CC1=NNC(=O)C1CCC(=O)N/N=C/C(Br)=C/c1ccccc1 (centres undefined),"20.6 µM [falling, single point]",

# Some values from the entries so far:
# Under AC50 [1], `CCOC(=O)C1=C(C)NC(=O)NC1c1cc(Br)c(O)c(OC)c1` (centres undefined) is listed with 29.1 µM [rising, single point]
# Under AC50 [1], `Cc1cc2cc(C#N)c(SCC(=O)Nc3nonc3C)nc2cc1C` is listed with 0.112 µM [rising, full curve, poor fit]
# Under AC50 [1], `COc1ccc(-n2ncc3c(N4CCCCC4)ncnc32)cc1` is listed with 20.6 µM [falling, single point]
